Binding data for one molecule are collected here from paper doi:10.1101/2023.07.11.548601.

No constants are given. Whether binding was seen depends on the method and setting. In cells and extracts the contact can be indirect. These calls come from enrichment with a bait or labelling near it, and not all partners need be listed. Sequences can lack the tags named with a protein.

The target in this test is T1, biotinylated Avi-Ozz (recombinant Ozz fused to an Avi-tag) (UniProt Q9D0S4).
T1 sequence (chain, biotin on the Avi-tag (biotinylated by the coexpressed bacterial ligase BirA)): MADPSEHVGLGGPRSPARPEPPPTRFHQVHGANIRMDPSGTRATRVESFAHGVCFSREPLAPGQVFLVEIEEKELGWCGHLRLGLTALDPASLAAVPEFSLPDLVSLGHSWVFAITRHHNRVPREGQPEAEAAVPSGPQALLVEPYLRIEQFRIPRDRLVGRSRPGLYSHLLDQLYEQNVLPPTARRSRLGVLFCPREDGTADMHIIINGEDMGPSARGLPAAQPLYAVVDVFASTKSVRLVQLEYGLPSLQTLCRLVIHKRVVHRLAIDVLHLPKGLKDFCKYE
Put plainly: affinity purification with mass spectrometry.

B1: Slc25A4 (protein, UniProt P48962 1-298)
chain: MGDQALSFLKDFLAGGIAAAVSKTAVAPIERVKLLLQVQHASKQISAEKQYKGIIDCVVRIPKEQGFLSFWRGNLANVIRYFPTQALNFAFKDKYKQIFLGGVDRHKQFWRYFAGNLASGGAAGATSLCFVYPLDFARTRLAADVGKGSSQREFNGLGDCLTKIFKSDGLKGLYQGFSVSVQGIIIYRAAYFGVYDTAKGMLPDPKNVHIIVSWMIAQSVTAVAGLVSYPFDTVRRRMMMQSGRKGADIMYTGTLDCWRKIAKDEGANAFFKGAWSNVLRGMGGAFVLVLYDEIKKYV
In the case of B1, the binding result is given as “binds”.
